Measurements from patent US11351218B2, “Composition for preventing or treating glioblastoma comprising Platycodon grandiflorum A. De Candolle, Scutellaria baicalensis, Phellodendron amurense Ruprecht or Rubus coreanus” (University-Industry Cooperation Group of Kyung Hee …, priority 2019, dated 2022).
For at least one compound, name, drawing or mass did not settle the structure.

Key:
U87MG and U373MG cells [1] = test: mRFP-GFP-LC3 tandem reporter (autolysosome formation) in GBM cells; assay type: cell-based, human; conditions: PD 10 μM or Rapa 1 μM, 24 hours
Method: Cells stably expressing mRFP-GFP-LC3 were incubated with PD (10 μM) or Rapa (1 μM) for 24 hours, and then analyzed by confocal microscopy. The merged images (yellow) show an overlap between GFP-LC3 (green) and mRFP-LC3 (red). The panels on the right are higher-magnification images of the boxed regions.
In order to examine whether PD induces accumulation of autophagosomes by inhibiting their maturation into autolysosomes, a tandem-tagged fluorescent reporter, mRFP-GFP-LC3, was used. The GFP fluorescence of the fusion protein is rapidly quenched in lysosomal acidic conditions, whereas the RFP fluorescence is relatively stable. The yellow dots in the merged image are indicative of autophagsomes and […] dots correspond to autolysosomes. The mRFP-GFP-LC3 plasmids were transfected into U87MG and U373MG cells, treated with PD for 24 hours, and subjected to confocal microscopy.

U87MG and U373MG cells [2] = test: LysoTracker assay with GFP-LC3B (autophagosome-lysosome fusion) in GBM cells; assay type: cell-based, human; conditions: PD 10 μM, BafA1 100 nM, Rapa 1 μM, 24 hours
Excerpt: […] Then, cells were stained with LysoTracker (red) and DAPI (blue). The merged images show an overlap between GFP-LC3 and LysoTracker (yellow). The panels on the right are higher-magnification images of the boxed regions.
Cultured cells seeded in plates with microscope coverslips were transfected with a pGFP-LC3B plasmid using Lipofectamine 3000 (Thermo Fisher Scientific) according to the manufacturer's instructions. After the transfection, the cells were fixed with 4% paraformaldehyde (PFA) in phosphate-buffered saline (PBS) at room temperature for 10 minutes. The images were examined under a laser confocal microscope (Zeiss, Oberkochen, Baden-Wurttemberg, Germany).
To stain acidic compartments, 50 nM LysoTrackerRedDND-99 (Thermo Fisher Scientific) was added to a medium at 37° C. with 5% CO2 for 30 minutes prior to fixation. The nuclei were labeled with 4,6-diamidino-2-phenylindole (DAPI, Sigma). The slides were finally mounted using a Faramount mounting medium (Dako, Glostrup, Denmark). The images were examined under a Zeiss laser confocal microscope.
Experimental Result 11. PD Blocks Fusion of Autophagosomes with Lysosomes. Since p62 was accumulated in autophagosomes by PD treatment, it was speculated that PD may cause the lysosomal dysfunction like bafilomycin A1, which inhibits vacuolar H^+-ATPase (V-ATPase)-dependent lysosomal acidification and blocks autophagosome-lysosome fusion. […]

## CO[C@H]1C[C@@H]2CC[C@@H](C)[C@@](O)(O2)C(=O)C(=O)N2CCCC[C@H]2C(=O)O[C@H]([C@H](C)C[C@@H]2CC[C@@H](O)[C@H](OC)C2)CC(=O)[C@H](C)/C=C(\C)[C@@H](O)[C@@H](OC)C(=O)[C@H](C)C[C@H](C)/C=C/C=C/C=C/1C [rapamycin, Rapamycin, reference compound]
U87MG and U373MG cells [1]
  mRFP and GFP dots of mRFP-GFP-LC3: increase in mRFP dots
U87MG and U373MG cells [2]
  colocalization of GFP-LC3B and LysoTracker Red staining: this effect was inhibited
